From the supplement of paper PMC4635364
Structures can show the parent of a compound that is named as a salt. The list shows a part of the results. Repeats in this data set agree poorly, so a single value says little.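 ReNCell VM, a human fetal ventral-midbrain neural progenitor line, was differentiated without mitogens. Blinded raters scored images stained for doublecortin (early neurons) or tyrosine hydroxylase (dopaminergic neurons) against untreated wells (0 = no change). Scores were averaged across repeats and both raters, and compounds averaging 2 or more were selected as hits for retesting.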

Key:
[1] = system: ReNCell VM; assay: neuronal differentiation score (DCX+ cell fraction vs untreated, manual image score) (score (-3 to 3)); higher = more neuronal differentiation; settings: 2 uM, 2 weeks
[2] = system: ReNCell VM; assay: dopaminergic neuron differentiation score (TH+ cell fraction vs untreated, manual image score) (score (0 to 3)); higher = more TH+ dopaminergic neuron differentiation; settings: 2 uM, 4 weeks, BDNF 10 ng/ml + GDNF 10 ng/ml

CC[C@@H](c1cccc(O)c1)[C@@H](C)CN(C)C
neuronal differentiation score ([1]; library: Spectrum): inactive: 1 | dopaminergic neuron differentiation score ([2]; library: Spectrum): inactive: 0

NCc1cccnc1
neuronal differentiation score ([1]; library: Spectrum): inactive: 0 | dopaminergic neuron differentiation score ([2]; library: Spectrum): inactive: 0

FC(F)(F)c1cccc(C2=CCN(CCc3ccc4ccccc4c3)CC2)c1 [Xaliproden hydrochloride]
neuronal differentiation score ([1]; library: Tocriscreen): inactive: 0 | dopaminergic neuron differentiation score ([2]; library: Tocriscreen): inactive: 0

CN1CCc2cccc(Cl)c2CC1
neuronal differentiation score ([1]; library: LOPAC): inactive: 0 | dopaminergic neuron differentiation score ([2]; library: LOPAC): inactive: 0

CC(C)(C)NCC(O)c1cc(Cl)c(N)c(Cl)c1 (stereo not drawn)
neuronal differentiation score ([1]; library: Spectrum): inactive: 0 | dopaminergic neuron differentiation score ([2]; library: Spectrum): inactive: 0

CN1C2CCC1CC(O)C2 (stereo not drawn) [Tropine]
neuronal differentiation score ([1]; library: Phytochemical): inactive: 0 | dopaminergic neuron differentiation score ([2]; library: Phytochemical): inactive: 0

CCC1(CC)C(=O)NC(=O)NC1=O
neuronal differentiation score ([1]; library: Spectrum): inactive: 0 | dopaminergic neuron differentiation score ([2]; library: Spectrum): inactive: 0

CCN(CCCl)Cc1ccccc1Br [DSP-4 hydrochloride]
neuronal differentiation score ([1]; library: LOPAC): inactive: 0 | dopaminergic neuron differentiation score ([2]; library: LOPAC): active: 3

O=[N+]([O-])OCC(CO[N+](=O)[O-])O[N+](=O)[O-]
neuronal differentiation score ([1]; library: Spectrum): inactive: 0 | dopaminergic neuron differentiation score ([2]; library: Spectrum): inactive: 0

Cc1ncc(CNC(=O)N(CCCl)N=O)c(N)n1 [Nimustine hydrochloride]
neuronal differentiation score ([1]; library: LOPAC): inactive: 1 | dopaminergic neuron differentiation score ([2]; library: LOPAC): inactive: 0

CC(C)(C)c1cc(C=C(C#N)C#N)cc(C(C)(C)C)c1O [Tyrphostin A9]
neuronal differentiation score ([1]; library: LOPAC): inactive: 0 | dopaminergic neuron differentiation score ([2]; library: LOPAC): inactive: 0

CN1CCc2cc3c(cc2[C@H]1[C@@H]1OC(=O)c2c1ccc1c2OCO1)OCO3
neuronal differentiation score ([1]; library: Spectrum): inactive: 0 | dopaminergic neuron differentiation score ([2]; library: Spectrum): inactive: 0

N#C/C(=C\c1ccc(O)cc1)C(=O)O [alpha-CYANO-4-HYDROXYCINNAMIC ACID]
neuronal differentiation score ([1]; library: Spectrum): inactive: 0 | dopaminergic neuron differentiation score ([2]; library: Spectrum): inactive: 0

CC(=O)O[C@H]1C[C@@H](OC(C)=O)C(C)(C)C2C[C@@H](OC(C)=O)[C@]3(C)C(CC[C@@]4(C)[C@H](c5ccoc5)C(=O)[C@H]5O[C@]543)[C@]21C (stereo partly drawn)
neuronal differentiation score ([1]; library: Spectrum): inactive: 0 | dopaminergic neuron differentiation score ([2]; library: Spectrum): inactive: 1
